Publication PMC5312389
Substitutions are numbered along the chain they refer to. No constants are given. Whether binding was seen depends on the method and setting. Binding seen in cells or lysates may run through a third protein. Binding can be weak; no strength is given. Tags and fused reporters may be left off the sequences shown.

Protein sequences, listed by entry. Tags and fused reporters are not part of them. Lines headed by an entry give the natural chain unless they say otherwise; changes in a name come on top.
UniProt Q09472: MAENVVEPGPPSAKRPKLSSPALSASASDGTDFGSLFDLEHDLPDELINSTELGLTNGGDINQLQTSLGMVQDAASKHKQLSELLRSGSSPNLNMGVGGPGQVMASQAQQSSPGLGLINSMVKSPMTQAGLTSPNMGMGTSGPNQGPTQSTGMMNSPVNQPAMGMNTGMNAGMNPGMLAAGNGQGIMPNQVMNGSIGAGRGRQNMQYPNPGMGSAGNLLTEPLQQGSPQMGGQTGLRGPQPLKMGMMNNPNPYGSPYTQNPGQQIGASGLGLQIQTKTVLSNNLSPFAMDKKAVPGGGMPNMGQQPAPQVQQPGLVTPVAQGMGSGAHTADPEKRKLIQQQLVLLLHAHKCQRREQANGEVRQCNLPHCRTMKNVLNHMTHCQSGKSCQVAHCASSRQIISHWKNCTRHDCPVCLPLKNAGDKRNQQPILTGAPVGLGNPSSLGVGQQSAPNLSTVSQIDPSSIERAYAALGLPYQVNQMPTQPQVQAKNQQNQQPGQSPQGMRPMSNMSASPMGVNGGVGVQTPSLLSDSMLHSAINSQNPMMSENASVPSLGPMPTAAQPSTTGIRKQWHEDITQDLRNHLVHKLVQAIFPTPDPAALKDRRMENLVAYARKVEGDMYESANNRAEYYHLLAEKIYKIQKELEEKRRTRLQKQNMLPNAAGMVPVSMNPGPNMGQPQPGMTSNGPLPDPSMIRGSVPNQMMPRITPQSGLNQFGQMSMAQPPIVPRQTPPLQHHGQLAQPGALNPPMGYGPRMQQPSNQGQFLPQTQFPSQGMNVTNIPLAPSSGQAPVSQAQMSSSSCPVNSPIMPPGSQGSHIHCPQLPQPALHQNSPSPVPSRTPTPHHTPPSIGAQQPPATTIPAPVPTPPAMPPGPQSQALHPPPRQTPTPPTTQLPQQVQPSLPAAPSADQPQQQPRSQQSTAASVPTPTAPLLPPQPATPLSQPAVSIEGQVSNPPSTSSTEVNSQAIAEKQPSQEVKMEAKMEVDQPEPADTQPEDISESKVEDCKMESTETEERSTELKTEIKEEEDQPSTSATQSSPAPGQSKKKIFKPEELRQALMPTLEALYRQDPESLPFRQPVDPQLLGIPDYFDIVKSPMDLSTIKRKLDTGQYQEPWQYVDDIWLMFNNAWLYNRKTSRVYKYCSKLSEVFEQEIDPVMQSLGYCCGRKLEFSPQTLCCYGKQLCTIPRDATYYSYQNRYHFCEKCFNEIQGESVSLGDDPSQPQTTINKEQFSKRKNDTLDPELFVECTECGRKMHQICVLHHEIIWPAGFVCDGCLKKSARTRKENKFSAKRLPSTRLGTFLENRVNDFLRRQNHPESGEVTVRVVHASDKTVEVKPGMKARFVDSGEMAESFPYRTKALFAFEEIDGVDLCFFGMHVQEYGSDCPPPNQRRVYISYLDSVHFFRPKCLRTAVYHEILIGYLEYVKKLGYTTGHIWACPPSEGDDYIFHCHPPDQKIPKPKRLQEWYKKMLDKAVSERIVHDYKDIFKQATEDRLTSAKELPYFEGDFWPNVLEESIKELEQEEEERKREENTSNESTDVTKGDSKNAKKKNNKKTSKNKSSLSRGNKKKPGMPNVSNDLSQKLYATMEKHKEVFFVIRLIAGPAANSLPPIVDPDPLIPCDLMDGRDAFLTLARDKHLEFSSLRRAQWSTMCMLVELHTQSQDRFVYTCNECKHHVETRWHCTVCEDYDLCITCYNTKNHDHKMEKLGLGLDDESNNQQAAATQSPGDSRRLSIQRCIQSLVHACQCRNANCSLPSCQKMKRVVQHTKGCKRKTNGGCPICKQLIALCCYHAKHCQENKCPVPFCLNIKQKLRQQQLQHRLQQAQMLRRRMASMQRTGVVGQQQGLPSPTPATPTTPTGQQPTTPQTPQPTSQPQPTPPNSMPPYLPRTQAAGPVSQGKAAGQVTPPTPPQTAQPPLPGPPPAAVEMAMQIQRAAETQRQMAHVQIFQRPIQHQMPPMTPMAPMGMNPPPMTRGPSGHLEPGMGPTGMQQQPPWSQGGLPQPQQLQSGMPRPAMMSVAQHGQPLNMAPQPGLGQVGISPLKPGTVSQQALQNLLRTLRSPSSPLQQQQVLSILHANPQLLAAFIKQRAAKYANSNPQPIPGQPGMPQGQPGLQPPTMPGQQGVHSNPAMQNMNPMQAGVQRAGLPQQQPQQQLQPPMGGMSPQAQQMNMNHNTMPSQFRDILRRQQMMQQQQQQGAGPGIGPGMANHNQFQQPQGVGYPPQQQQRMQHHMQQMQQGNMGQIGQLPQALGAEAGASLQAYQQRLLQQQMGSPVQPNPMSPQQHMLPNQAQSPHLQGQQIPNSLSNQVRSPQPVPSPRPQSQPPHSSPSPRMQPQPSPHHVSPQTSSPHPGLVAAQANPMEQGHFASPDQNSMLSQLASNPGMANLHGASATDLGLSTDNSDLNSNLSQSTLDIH

Experiments:
[1] = molecular target: T1, FLAG-FOXM1 wild type, expressed in HEK293T cells (UniProt Q08050); assay: co-IP; HEK293T cells transfected with FLAG-FOXM1-WT or FLAG-FOXM1-5KR; immunoprecipitation with anti-FLAG, blots with anti-FLAG and anti-p300
T1 sequence: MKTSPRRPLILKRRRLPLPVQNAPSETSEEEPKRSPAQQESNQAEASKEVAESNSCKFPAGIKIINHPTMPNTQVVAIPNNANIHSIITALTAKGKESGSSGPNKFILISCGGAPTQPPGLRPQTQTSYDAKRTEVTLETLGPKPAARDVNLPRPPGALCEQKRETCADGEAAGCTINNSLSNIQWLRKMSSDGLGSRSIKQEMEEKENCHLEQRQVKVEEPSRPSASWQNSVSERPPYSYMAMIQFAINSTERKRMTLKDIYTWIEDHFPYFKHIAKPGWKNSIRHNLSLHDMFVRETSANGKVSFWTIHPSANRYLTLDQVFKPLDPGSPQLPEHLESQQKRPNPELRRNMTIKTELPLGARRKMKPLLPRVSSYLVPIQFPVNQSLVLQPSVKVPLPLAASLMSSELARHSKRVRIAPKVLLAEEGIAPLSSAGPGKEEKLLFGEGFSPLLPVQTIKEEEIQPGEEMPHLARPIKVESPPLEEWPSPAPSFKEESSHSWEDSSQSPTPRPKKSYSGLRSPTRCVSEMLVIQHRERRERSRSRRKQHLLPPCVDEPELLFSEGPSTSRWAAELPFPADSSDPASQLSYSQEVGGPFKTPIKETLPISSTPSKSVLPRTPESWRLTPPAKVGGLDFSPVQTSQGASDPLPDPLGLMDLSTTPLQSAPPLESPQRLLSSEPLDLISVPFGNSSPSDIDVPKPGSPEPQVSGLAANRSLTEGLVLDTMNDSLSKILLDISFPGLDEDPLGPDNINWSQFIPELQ

[2] = molecular target: T2, FLAG-FOXM1-5KR, expressed in HEK293T cells (UniProt Q08050); assay: as above
T2 sequence: T1 sequence with K63R, K422R, K440R, K603R, K614R

binding [1]: binds | binding [2]: binds
Substance: p300, in HEK293T cells (called CBP in the text on Figure 3D) (from UniProt Q09472)
